Assay results published in publication PMC8363638.
Results are given in words; binding and its absence hold for the method and conditions named. Binding seen in cells or lysates may run through a third protein. Tags and fused reporters may be left off the sequences shown.

T1: GST-SPF45 (human) (UniProt Q96I25)
T1 sequence: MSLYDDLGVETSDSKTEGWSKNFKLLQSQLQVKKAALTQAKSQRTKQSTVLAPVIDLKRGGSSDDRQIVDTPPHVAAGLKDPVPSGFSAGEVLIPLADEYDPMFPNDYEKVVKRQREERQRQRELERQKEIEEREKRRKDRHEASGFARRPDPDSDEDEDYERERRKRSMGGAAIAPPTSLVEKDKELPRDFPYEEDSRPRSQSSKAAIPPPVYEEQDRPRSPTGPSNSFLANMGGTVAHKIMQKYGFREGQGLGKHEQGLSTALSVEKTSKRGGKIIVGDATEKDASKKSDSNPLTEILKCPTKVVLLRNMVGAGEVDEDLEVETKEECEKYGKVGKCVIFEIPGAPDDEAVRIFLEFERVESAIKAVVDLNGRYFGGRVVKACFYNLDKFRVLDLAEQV

T2: GST-SPF45 (human), Q96I25
T2 chain: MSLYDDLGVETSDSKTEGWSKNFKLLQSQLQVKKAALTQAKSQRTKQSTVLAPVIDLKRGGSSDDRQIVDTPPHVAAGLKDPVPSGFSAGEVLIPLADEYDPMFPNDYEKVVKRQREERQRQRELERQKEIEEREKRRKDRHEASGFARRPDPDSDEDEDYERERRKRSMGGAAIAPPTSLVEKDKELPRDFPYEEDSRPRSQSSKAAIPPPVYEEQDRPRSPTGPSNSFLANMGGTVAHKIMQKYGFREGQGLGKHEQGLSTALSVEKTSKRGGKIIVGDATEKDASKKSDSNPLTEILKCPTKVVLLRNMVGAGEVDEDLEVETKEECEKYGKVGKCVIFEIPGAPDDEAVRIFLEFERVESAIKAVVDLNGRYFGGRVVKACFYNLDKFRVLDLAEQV


What was measured:
[1] = molecular target: T1, GST-SPF45 (human); test: pull-down; GST fusion protein (5 µg) incubated at 30 °C for 15 min in 100 µL with 30% HeLa cell nuclear extract; RNase A treatment; NET2 buffer [50 mM Tris (pH 7.5), 150 mM NaCl, 0.05% Nonidet P-40]; Glutathione Sepharose 4B, 4 °C for 3 h; six washes; Western blotting; only the target purified
[2] = molecular target: T2, GST-SPF45 (human), Q96I25; test: as above; settings: remark: other sources report otherwise

Row | binding [1] | binding [2] | Binder
1 | no binding | – | U2AF^35 (protein, UniProt Q01081 1-240) MAEYLASIFGTEKDKVNCSFYFKIGACRHGDRCSRLHNKPTFSQTIALLNIYRNPQNSSQSADGLRCAVSDVEMQEHYDEFFEEVFTEMEEKYGEVEEMNVCDNLGDHLVGNVYVKFRREEDAEKAVIDLNNRWFNGQPIHAELSPVTDFREACCRQYEMGECTRGGFCNFMHLKPISRELRRELYGRRRKKHRSRSRSRERRSRSRDRGRGGGGGGGGGGGGRERDRRRSRDRERSGRF
2 | – | no binding | SF1, Q15637 1-639 (protein) MATGANATPLDFPSKKRKRSRWNQDTMEQKTVIPGMPTVIPPGLTREQERAYIVQLQIEDLTRKLRTGDLGIPPNPEDRSPSPEPIYNSEGKRLNTREFRTRKKLEEERHNLITEMVALNPDFKPPADYKPPATRVSDKVMIPQDEYPEINFVGLLIGPRGNTLKNIEKECNAKIMIRGKGSVKEGKVGRKDGQMLPGEDEPLHALVTANTMENVKKAVEQIRNILKQGIETPEDQNDLRKMQLRELARLNGTLREDDNRILRPWQSSETRSITNTTVCTKCGGAGHIASDCKFQRPGDPQSAQDKARMDKEYLSLMAELGEAPVPASVGSTSGPATTPLASAPRPAAPANNPPPPSLMSTTQSRPPWMNSGPSESRPYHGMHGGGPGGPGGGPHSFPHPLPSLTGGHGGHPMQHNPNGPPPPWMQPPPPPMNQGPHPPGHHGPPPMDQYLGSTPVGSGVYRLHQGKGMMPPPPMGMMPPPPPPPSGQPPPPPSGPLPPWQQQQQQPPPPPPPSSSMASSTPLPWQQNTTTTTTSAGTGSIPPWQQQQAAAAASPGAPQMQGNPTMVPLPPGVQPPLPPGAPPPPPPPPPGSAGMMYAPPPPPPPPMDPSNFVTMMGMGVAGMPPFGMPPAPPPPPPQN
3 | – | no binding | U2AF^65, P26368 1-475 (protein) MSDFDEFERQLNENKQERDKENRHRKRSHSRSRSRDRKRRSRSRDRRNRDQRSASRDRRRRSKPLTRGAKEEHGGLIRSPRHEKKKKVRKYWDVPPPGFEHITPMQYKAMQAAGQIPATALLPTMTPDGLAVTPTPVPVVGSQMTRQARRLYVGNIPFGITEEAMMDFFNAQMRLGGLTQAPGNPVLAVQINQDKNFAFLEFRSVDETTQAMAFDGIIFQGQSLKIRRPHDYQPLPGMSENPSVYVPGVVSTVVPDSAHKLFIGGLPNYLNDDQVKELLTSFGPLKAFNLVKDSATGLSKGYAFCEYVDINVTDQAIAGLNGMQLGDKKLLVQRASVGAKNATLVSPPSTINQTPVTLQVPGLMSSQVQMGGHPTEVLCLMNMVLPEELLDDEEYEEIVEDVRDECSKYGLVKSIEIPRPVDGVEVPGCGKIFVEFTSVFDCQKAMQGLTGRKFANRVVVTKYCDPDSYHRRDFW
